These are yes or no findings as the source states them, for the method shown. In cells and extracts the contact can be indirect. A yes stands for co-enrichment or nearness to the bait. Other partners may have been found.
Biological target: Flag-CD47 (human) (UniProt Q08722)
Assay: affinity purification with mass spectrometry; HEK293T cells transfected with Flag-CD47, immunoprecipitated with anti-Flag magnetic beads, LC-MS/MS; three independent experiments

By UniProt entry, the sequences of proteins in these tests, tags left out. Residues count along the entry.
UniProt Q08722, residues 19-323: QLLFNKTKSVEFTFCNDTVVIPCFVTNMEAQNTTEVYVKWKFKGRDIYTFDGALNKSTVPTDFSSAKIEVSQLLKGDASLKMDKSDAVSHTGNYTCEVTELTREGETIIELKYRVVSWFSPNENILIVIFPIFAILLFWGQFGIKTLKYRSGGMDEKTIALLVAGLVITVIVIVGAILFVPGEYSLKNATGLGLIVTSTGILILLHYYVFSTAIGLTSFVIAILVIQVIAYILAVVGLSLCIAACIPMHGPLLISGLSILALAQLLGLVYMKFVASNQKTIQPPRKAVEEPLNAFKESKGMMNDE
UniProt P06733: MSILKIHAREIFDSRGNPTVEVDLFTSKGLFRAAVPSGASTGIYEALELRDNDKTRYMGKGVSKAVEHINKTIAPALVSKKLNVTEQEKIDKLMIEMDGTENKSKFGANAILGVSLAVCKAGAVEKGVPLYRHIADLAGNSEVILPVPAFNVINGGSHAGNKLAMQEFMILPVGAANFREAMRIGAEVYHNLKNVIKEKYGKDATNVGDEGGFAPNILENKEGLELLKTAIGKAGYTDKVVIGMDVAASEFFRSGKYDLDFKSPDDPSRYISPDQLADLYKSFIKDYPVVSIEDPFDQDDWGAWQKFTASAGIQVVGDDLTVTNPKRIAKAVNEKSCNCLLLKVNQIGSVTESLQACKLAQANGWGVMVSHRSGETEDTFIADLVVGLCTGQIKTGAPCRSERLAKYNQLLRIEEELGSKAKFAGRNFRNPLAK

binding: binds
Substance: ENO1 (endogenous, HEK293T) (from UniProt P06733 1-434) (enzyme)

From paper PMC7086360
